Experimental findings from article doi:10.1101/2021.08.25.457671 are described below.

The chains behind the UniProt entries cited, without tags or fusion partners.
UniProt P10591: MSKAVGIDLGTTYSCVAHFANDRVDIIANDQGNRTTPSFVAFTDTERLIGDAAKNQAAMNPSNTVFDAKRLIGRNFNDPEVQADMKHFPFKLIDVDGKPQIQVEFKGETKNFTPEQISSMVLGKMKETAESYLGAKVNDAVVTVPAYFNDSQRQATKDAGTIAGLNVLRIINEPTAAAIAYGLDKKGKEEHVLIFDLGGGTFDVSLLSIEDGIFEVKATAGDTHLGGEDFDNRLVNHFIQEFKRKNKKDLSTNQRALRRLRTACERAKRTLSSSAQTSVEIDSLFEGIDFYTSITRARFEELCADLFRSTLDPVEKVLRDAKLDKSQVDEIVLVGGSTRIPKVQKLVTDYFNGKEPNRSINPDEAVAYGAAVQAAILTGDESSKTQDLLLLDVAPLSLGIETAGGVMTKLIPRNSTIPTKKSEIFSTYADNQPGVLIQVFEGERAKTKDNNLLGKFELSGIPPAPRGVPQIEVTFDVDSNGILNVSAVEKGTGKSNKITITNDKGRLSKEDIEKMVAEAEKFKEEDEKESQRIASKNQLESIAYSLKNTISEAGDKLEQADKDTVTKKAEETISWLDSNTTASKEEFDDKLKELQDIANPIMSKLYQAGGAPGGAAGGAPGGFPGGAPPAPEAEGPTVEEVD
UniProt P25491: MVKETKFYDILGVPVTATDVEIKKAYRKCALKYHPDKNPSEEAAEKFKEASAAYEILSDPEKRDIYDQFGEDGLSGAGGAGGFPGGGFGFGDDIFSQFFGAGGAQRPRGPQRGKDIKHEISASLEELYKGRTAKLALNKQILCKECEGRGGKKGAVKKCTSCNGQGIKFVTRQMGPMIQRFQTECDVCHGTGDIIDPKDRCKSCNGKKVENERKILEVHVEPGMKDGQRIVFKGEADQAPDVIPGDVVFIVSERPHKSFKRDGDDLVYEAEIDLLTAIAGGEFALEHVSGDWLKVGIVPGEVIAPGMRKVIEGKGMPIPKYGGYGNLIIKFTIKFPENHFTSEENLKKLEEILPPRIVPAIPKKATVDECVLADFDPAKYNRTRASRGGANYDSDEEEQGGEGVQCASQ
UniProt P47079: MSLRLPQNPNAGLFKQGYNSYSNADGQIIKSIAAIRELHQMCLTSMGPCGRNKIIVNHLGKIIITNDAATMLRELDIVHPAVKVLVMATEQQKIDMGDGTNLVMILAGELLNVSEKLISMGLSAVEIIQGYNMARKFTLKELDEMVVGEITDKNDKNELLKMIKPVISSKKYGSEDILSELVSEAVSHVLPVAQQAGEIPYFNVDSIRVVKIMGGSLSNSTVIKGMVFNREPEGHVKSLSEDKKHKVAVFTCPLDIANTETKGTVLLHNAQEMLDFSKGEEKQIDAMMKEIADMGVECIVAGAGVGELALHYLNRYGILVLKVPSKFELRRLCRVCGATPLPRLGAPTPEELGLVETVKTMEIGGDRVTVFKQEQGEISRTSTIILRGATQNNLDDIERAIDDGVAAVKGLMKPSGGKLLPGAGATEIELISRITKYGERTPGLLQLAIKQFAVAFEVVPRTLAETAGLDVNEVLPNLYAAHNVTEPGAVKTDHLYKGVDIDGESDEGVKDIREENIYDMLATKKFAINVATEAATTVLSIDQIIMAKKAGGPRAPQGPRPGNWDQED

These are yes or no findings as the source states them, for the method shown. In cells and extracts the contact can be indirect. Here binding means that the protein was enriched with, or labelled near, the bait; the list need not be complete.

This test deals with HIS-tagged Ssa1 (budding yeast) (UniProt P10591). The test is described as follows: affinity purification with mass spectrometry.

For the molecule Ydj1 (from UniProt P25491 1-409), the binding result was “binds”. For “Cct8 found by mass spectrometry with HIS-Ssa1 (from UniProt P47079 1-568)” the value was “binds”.

B1: Sse1 (protein, UniProt P32589 1-693)
chain: MSTPFGLDLGNNNSVLAVARNRGIDIVVNEVSNRSTPSVVGFGPKNRYLGETGKNKQTSNIKNTVANLKRIIGLDYHHPDFEQESKHFTSKLVELDDKKTGAEVRFAGEKHVFSATQLAAMFIDKVKDTVKQDTKANITDVCIAVPPWYTEEQRYNIADAARIAGLNPVRIVNDVTAAGVSYGIFKTDLPEGEEKPRIVAFVDIGHSSYTCSIMAFKKGQLKVLGTACDKHFGGRDFDLAITEHFADEFKTKYKIDIRENPKAYNRILTAAEKLKKVLSANTNAPFSVESVMNDVDVSSQLSREELEELVKPLLERVTEPVTKALAQAKLSAEEVDFVEIIGGTTRIPTLKQSISEAFGKPLSTTLNQDEAIAKGAAFICAIHSPTLRVRPFKFEDIHPYSVSYSWDKQVEDEDHMEVFPAGSSFPSTKLITLNRTGDFSMAASYTDITQLPPNTPEQIANWEITGVQLPEGQDSVPVKLKLRCDPSGLHTIEEAYTIEDIEVEEPIPLPEDAPEDAEQEFKKVTKTVKKDDLTIVAHTFGLDAKKLNELIEKENEMLAQDKLVAETEDRKNTLEEYIYTLRGKLEEEYAPFASDAEKTKLQGMLNKAEEWLYDEGFDSIKAKYIAKYEELASLGNIIRGRYLAKEEEKKQAIRSKQEASQMAAMAEKLAAQRKAEAEKKEEKKDTEGDVDMD
For B1, the binding entry is listed as “binds”.
